Counter-ions that a name gives are not always drawn. For at least one compound, name, drawing or mass did not settle the structure.
How the values were obtained:
human plasma [1] = assay: Anti-coagulant activity, thrombin time (TT) in human plasma; assay type: biochemical; conditions: 37° C.
Description: (§1) In order to evaluate the anti-coagulant activity of the compounds of the invention, the thrombin time (TT) and activated cephalin time (ACT) were determined from human plasma samples. An ST4 coagulometer (Diagnostica Stago, France) was used. Plasma, deficient in platelets and lyophilised (Stago), is taken up in distilled water. The TT is obtained using the reagent Prest Thrombin and the ACT using the reagent PTT Automate […]. […] Under those conditions, the TT is of the order of 18 seconds and the ACT is of the order of 12 seconds. The activity of an antagonist is evaluated by its capacity to prolong the TT and the ACT relative to the control. The effect of the inhibitors is expressed by the concentration in μM that doubles the coagulation time (Ctt2).

human plasma [2] = assay: Anti-coagulant activity, activated cephalin time (ACT) in human plasma; assay type: biochemical; conditions: 37° C.
Description: as §1

## CCNC(=O)COc1ccccc1CNC(=O)[C@@H]1CCc2cnc(NCC(c3ccccc3)c3ccccc3)c(=O)n21 [Example 103, (6S)-N-[(2-Ethylcarbamoylmethoxy)-benzyl]-4-oxo-3-(2,2-diphenylethylamino)-4,6,7,8-tetrahydropyrrolo[1,2-a]pyrazine-6-carboxamide hydrochloride]
Human plasma [1]
  TT Ctt2 (concentration that doubles the coagulation time): 0.96 µM
Human plasma [2]
  ACT Ctt2 (concentration that doubles the coagulation time): 3.65 µM
